Entries after “also recorded” stand apart in the source; their conditions may differ. For at least one compound, name, drawing or mass did not settle the structure.
Columns and labels:
[1] = test system: ESC-derived definitive endoderm; assay: Nkx2-1+ endoderm induction from ESC-derived endoderm, specification media day 6-14, flow cytometry on day 14; assay type: cell-based, mouse; conditions: BMP4+FGF2 media plus inhibitor day 6 to 14, Dorsomorphin 4 μM, LY294002 25 tM
Description: Definitive endoderm induction was performed in complete serum-free differentiation medium (cSFDM) consisting of 75% IMDM (Invitrogen 12440) and 25% Ham's Modified F12 medium (Cellgro 10-080-CV) supplemented with N2 and B27+RA (Invitrogen 17502-048 and 17504-44), 0.05% BSA (Invitrogen 15260-037), […] L-glutamine (Invitrogen 25030-081), 0.05 mg/ml ascorbic acid (Sigma A4544) and 4.5×10^-4M MTG (Sigma M6145) as previously described (Gouon-Evans et al., 2006, Longmire et al., 2012). Undifferentiated ESCs were trypsinized to form a single cell suspension and plated onto Petri dishes (500,000 cells/10 cm dish) resulting in the formation of embryoid bodies (EBs) over 60 hours. EBs were dissociated by trypsinization (0.05%, 1 min, 37° C.) and plated as single cells into cSFDM supplemented with 50 ng/ml Activin A (R&D systems 338-AC) for an additional 60 hours. For Anteriorization of endoderm, on day 5 (120 total hours of differentiation) EBs were plated onto p100 Petri dishes in Nog/SB media: cSFDM supplemented with 100 ng/ml mNoggin (R&D 1967-NG) and 10 μM SB431542 (Sigma S4317) as previously described (Longmire et al., 2012). […]

[2] = test system: ESC-derived Nkx2-1+ cells; assay: Thyroid marker mRNA by real time RT-PCR on Day 26 after outgrowth of day 14 sorted Nkx2-1+ cells; assay type: cell-based, mouse; conditions: Nkx2-1+ cells induced in presence of inhibitor, sorted day 14, cultured without inhibitor to day 26
Description: For Anteriorization of endoderm, on day 5 (120 total hours of differentiation) EBs were plated onto p100 Petri dishes in Nog/SB media: cSFDM supplemented with 100 ng/ml mNoggin (R&D 1967-NG) and 10 μM SB431542 (Sigma S4317) as previously described (Longmire et al., 2012). For Nkx2-1+ endoderm induction, EBs were plated on gelatin coated 6 well plates at the equivalent density of 200,000 cells/well in Specification media: cSFDM supplemented as stated in the text with 100 ng/ml mWnt3a (R&D 1324-WN), 10 ng/ml hFGF10 (R&D 345-FG), 10 ng/ml mKGF (R&D 5028-KG), 10 ng/ml mBMP4 (R&D 5020-BP), 20 ng/ml hEGF (R&D 236-EG), 250 ng/ml mFGF2 (R&D 3139-FB) and 100 ng/ml Heparin Sodium Salt (Sigma […]2-1mCherry+ cells, or the populations otherwise indicated in the text were sorted using MoFlo or […] II SORP high speed cell sorters and replated onto gelatin-coated 24 well plates on day 12-14 at a density of 5×10^4 cells/well. Where indicated in the text, small molecule inhibitors were dissolved in DMSO according to manufacturer's instructions and added to the culture media from day 6 to 14 at the following working concentrations: Dorsomorphin 4 μM (Sigma P5499), PD98059 20 μM, SB203580 10 μM (both from Cell Signaling Technology, PHZ1164 and 5633), and LY294002 […] (Promega V1201). Further differentiation and maturation of Nkx2-1+ sorted cells was performed in either 2D or 3D culture conditions, as indicated in the text. For 2D differentiation cells sorted on day 14 were replated and grown for 8 more days in cSFDM supplemented with 250 ng/ml mFGF2, 100 ng/ml hFGF10 and 100 ng/ml Heparin Sodium Salt. […] Relative gene expression, normalized to 18S control, was calculated as fold change in 18S-normalized gene expression, over baseline, using the 2^(-ΔΔCT) method. […]

SMILES	numbers and percentages of Nkx2-1 positive cells [1]	capacity to express thyroid markers, such as Tg and Tpo [2]	capacity to express thyroid markers, such as Tg and Tpo ([2]; listed as LY)
O=c1cc(N2CCOCC2)oc2c(-c3ccccc3)cccc12 [LY294002]	significantly reduced numbers and percentages of Nkx2-1 positive cells	significantly reduced capacity through day 26 to express thyroid markers	affected thyroid lineage differentiation
c1cc(-c2cnn3cc(-c4ccc(OCCN5CCCCC5)cc4)cnc23)ccn1 [Dorsomorphin]	significantly reduced numbers and percentages of Nkx2-1 positive cells	affected thyroid lineage differentiation; also recorded: significantly reduced capacity through day 26 to express thyroid markers	–
